1 compound from patent US20070134744A1, “Epothilone resistant cell lines” (priority 2000, published 2007) can be followed below.

Holding throughout (assay type): cell-based, human
For one assay, the system named is 297/C5/0 cells. As to conditions: 297/C5/0 (EpoA selected), 72 hrs, average of three experiments. The protocol: (§1) Anti-proliferative assays are performed basically as described (Meyer et al., Int. J. Cancer 43:851 (1989)). Briefly, cells are seeded at 1.5×10^3 cells/well into 96-well microtiter plates and allowed to adhere by incubation overnight. Compounds are added in serial dilutions on day 1. The plates are then incubated for an additional 3 days, after which the cells are fixed with 3.3% v/v glutaraldehyde, washed with water and stained with 0.05% w/v methylene blue according to conventional methods. After washing, the dye is eluted with 3% HCl and the optical density measured at 665 nm with a SpectraMax Plus (Molecular Devices, Sunnyvale, Calif.) according to manufacturers instructions. IC50 values are determined by mathematical curve-fitting using the SoftPro2.6.1 program (Molecular Devices, Sunnyvale, Calif.) using the formula (OD treated−OD start)/(OD control−OD start)×100. The IC50 is defined as the drug concentration that led to 50% inhibition of net cell growth at the end of the incubation period. IC50 determinations with the cell line 298/D4/40 are performed in the presence of 40 nM epothilone A.
(§2) Data in Table 4 are gathered according to the following methods: Cells (1×10^3) are seeded in 96-well plates and allowed to adhere for 24 hrs. Compounds are then added as two-fold serial dilutions and incubation continued for an additional 72 hrs. Cell numbers at the beginning and at the end of the experiment are estimated by methylene blue staining of cellular protein mass according to conventional methods. The net mass increase of vehicle-treated cells is set as 100% growth. The IC50 is determined as the drug concentration that leads to half-maximal growth inhibition compared to the control. The resistance factor (RF) for a particular drug is calculated by dividing the IC50 determined on the resistant cell line by that determined on the parental KB-31 cells. Data are presented as average±standard deviation (SD) of three separate experiments, except na=not applicable (n<3). Colchicine-selected KB-8511 cells overexpressing P-glycoprotein served as a reference for the classical multi-drug-resistant phenotype.

Another assay deals with 298/D4/40 cells. As to conditions: 298/D4/40 (EpoA selected), 72 hrs, in the presence of 40 nM epothilone A. The protocol: as §1, §2
Another assay deals with KB-8511 cells. To be noted: KB-8511 (Colch selected), 72 hrs, average of three experiments. As to the method: as §1, §2
The subject of the next assay is 315/sc5.9 cells. To be noted: 315/sc5.9 (EpoB selected), 72 hrs, average of three experiments. The protocol: as §1, §2

The structures appear in SMILES notation.

Consider `CN[C@H]1CCc2cc(OC)c(OC)c(OC)c2-c2ccc(OC)c(=O)cc21` [Demecolcine, demecolcine], for which the “RF (resistance factor: IC50 resistant cell line / IC50 parental KB-31)” value in the assay on 297/C5/0 cells is on record as 0.7; in the assay with 298/D4/40 cells it was 0.5; in the assay with KB-8511 cells it was 6.2; in the assay on 315/sc5.9 cells, 0.7.
